These results are taken from article PMC9117277.

By UniProt entry, the sequences of proteins in these tests, tags left out. Residues count along the entry.
UniProt Q8JZU2, residues 14-311: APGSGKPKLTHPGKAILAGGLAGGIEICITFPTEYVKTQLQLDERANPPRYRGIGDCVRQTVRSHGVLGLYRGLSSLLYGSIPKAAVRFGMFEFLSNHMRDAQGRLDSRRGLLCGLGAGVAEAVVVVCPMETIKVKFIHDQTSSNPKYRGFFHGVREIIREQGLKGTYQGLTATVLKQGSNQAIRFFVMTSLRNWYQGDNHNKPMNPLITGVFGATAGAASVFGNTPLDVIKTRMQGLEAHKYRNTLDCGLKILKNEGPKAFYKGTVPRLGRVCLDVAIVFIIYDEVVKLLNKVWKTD

What all share (test): co-IP; mitochondrial lysate (1% NP-40, 20 mM Tris-HCl pH 7.4, 150 mM NaCl) of IL-1β treated primary adipocytes; IP with anti-IRAKM, anti-Slc25a1 or anti-Flag antibody and protein G-sepharose at 4 °C overnight; western blot
For test [1], the target named is T1, Flag-tagged wild-type IRAKM (UniProt Q8K4B2).
T1 sequence: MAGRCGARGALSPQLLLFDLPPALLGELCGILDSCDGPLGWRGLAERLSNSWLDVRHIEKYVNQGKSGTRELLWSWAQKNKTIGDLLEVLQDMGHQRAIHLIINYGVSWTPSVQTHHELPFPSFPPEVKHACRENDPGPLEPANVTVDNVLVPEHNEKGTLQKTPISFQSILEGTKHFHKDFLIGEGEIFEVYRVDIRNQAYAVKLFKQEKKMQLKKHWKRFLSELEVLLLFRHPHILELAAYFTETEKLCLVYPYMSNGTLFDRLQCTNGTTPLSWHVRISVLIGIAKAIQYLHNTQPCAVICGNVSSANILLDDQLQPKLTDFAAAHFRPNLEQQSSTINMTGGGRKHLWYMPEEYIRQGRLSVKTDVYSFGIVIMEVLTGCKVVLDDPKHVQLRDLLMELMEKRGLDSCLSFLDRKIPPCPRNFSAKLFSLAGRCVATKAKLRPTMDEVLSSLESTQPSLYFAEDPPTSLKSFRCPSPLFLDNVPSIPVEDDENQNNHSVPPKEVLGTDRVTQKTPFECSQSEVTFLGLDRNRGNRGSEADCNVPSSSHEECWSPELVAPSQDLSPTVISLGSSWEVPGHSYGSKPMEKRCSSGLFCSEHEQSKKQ

For test [2], the target named is T2, IRAKM (mouse (endogenous in primary adipocytes)) (UniProt Q8K4B2).
T2 sequence: T1 sequence

The target of test [3] is T3, Flag-tagged IRAKM Phos-mut (S167A/S170A) (UniProt Q8K4B2).
T3 sequence: T1 sequence with S167A, S170A

The target of test [4] is mitochondrial citrate carrier solute carrier family 25 member 1 (Slc25a1) (mouse (endogenous in primary adipocytes)) (UniProt Q8JZU2).

Positions count from the first letter of the chain named. No constants are given. Whether binding was seen depends on the method and setting. Binding seen in cells or lysates may run through a third protein. Some results given as binding are weak or reduced against the parent protein; the word gives no strength. For some of these results: Tags and fused reporters may be left off the sequences shown.

Turning to “mitochondrial citrate carrier solute carrier family 25 member 1 (Slc25a1) (from UniProt Q8JZU2 14-311)”, the results for the binding result in test [1], in test [2] and in test [3] were “binds”, “binds” and “no binding”, respectively.

B1: IRAK2 (protein, UniProt Q8CFA1 1-622)
chain: MACYIYQLPSWVLDDLCRNIDTLSEWDWMQFASYVITDLTQLRKIKSMERVQGVSITRELLWWWSMRQATVQQLVDLLCHLELYRAAQIVLSWKPVPESTSPLPAFPEAVKPGAVATSRRNLKDEQEKVRPVKPRSLLDTGPIMAGAQRQRPCEMDAPCSLKTDAPDSPQSKYCSTSTSAPKQERLLGLPGDRLFWSEADVVQATEDFDQSHRISEGTFADIYQGQRNGVAFAFKKLREVAGSSPGSMDRFLQAEMQLCLRCCHANVLPLLGFCTGRQFHSLIYPYMANGSLHDRLWAQGNSDMLPWPQRASICSGLLLAVEHLHSLDIIHSNVKSANVLLDQHLNPKLAHPVAHPHPDNKKTKYTVMRTHLFQASAAYLPEHFIRVGQLTKQVDIFSCGIVLAEVLTGIPAMDKDRSPVYLKDLLLSEIPNSTSSVCSRKTSMGKAVVKEICQRHVEKRAGLLPEACEEAWATAVSVCLRRRNASVEEARVSLAGVEEQLRGQLSLPWSRVSEATGSSSNTPEETDDVDNSSLSVPSLVMMASCPGAASSPLFTGHGAAQPSTSGRQEADSSSEACTGPQTPQNATETSWKIEINEAKRRLMENIVLYKEERLDSSELFGP
B1: the binding entry in test [4] is on record as “no binding”.
